Laboratory results published in article doi:10.1101/111831.
Results are given in words; binding and its absence hold for the method and conditions named. Binding seen in cells or lysates may run through a third protein. Some binding calls cover weakened binding; strength is not graded here. Tags and fused reporters may be left off the sequences shown.

Biological target: T1, NRPE1 Δ1251-1976, C-terminal HA tag (full CTD deletion) (Arabidopsis thaliana (ecotype Col-0)) (UniProt Q5D869)
T1 sequence: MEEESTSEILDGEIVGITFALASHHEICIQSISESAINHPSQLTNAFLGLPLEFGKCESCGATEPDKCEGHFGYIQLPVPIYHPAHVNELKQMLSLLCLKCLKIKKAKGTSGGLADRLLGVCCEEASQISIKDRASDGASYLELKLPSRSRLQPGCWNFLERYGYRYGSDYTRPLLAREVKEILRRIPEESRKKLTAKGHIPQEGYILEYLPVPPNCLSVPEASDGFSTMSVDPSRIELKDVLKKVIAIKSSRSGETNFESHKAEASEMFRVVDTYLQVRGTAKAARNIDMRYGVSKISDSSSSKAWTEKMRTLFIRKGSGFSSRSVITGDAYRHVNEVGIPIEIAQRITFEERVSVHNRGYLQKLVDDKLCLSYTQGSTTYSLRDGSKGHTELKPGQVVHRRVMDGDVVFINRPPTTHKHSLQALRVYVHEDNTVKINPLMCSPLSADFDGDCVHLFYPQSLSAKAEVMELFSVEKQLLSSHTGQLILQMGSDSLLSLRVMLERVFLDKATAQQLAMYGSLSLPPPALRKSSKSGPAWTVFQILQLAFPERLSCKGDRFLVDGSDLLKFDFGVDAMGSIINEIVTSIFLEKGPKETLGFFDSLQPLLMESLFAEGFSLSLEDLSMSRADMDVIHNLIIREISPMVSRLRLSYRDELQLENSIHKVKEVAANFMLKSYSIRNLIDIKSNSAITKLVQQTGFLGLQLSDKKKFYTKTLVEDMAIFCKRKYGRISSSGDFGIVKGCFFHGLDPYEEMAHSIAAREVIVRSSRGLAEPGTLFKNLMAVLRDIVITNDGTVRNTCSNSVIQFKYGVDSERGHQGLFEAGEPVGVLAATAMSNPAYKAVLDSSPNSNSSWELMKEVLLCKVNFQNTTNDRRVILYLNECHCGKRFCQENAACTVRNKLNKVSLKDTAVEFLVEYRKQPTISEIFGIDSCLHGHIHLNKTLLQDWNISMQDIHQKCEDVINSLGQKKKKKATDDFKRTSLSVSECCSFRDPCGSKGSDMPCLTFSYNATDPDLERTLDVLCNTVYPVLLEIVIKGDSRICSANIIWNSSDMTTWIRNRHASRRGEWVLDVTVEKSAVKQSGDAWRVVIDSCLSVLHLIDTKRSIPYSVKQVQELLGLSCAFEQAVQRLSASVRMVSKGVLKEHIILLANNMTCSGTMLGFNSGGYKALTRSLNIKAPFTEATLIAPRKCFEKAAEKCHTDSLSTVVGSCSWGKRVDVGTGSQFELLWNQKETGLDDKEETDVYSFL
Test: co-IP

binding: binds
B1: NRP(B/D/E)11, 11th subunit common to Pols II, IV and V (protein, UniProt Q38859 1-116)
chain: MNAPERYERFVVPEGTKKVSYDRDTKIINAASFTVEREDHTIGNIVRMQLHRDENVLFAGYQLPHPLKYKIIVRIHTTSQSSPMQAYNQAINDLDKELDYLKNQFEAEVAKFSNQF
